Data: the supplement of paper PMC12595434, “Development of retinoid nuclear receptor pathway antagonists through targeting aldehyde dehydrogenase 1A3” (iScience, 2025)
The other results are listed elsewhere or left out. The data scatter; read single values as rough.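 Tm was set to 64 °C where no melting was found, and many curves are irregular.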

Chains of the proteins cited; added tags and fusions are not shown. Lines headed by an entry give the natural chain unless they say otherwise; changes in a name come on top.
UniProt Q9NX63: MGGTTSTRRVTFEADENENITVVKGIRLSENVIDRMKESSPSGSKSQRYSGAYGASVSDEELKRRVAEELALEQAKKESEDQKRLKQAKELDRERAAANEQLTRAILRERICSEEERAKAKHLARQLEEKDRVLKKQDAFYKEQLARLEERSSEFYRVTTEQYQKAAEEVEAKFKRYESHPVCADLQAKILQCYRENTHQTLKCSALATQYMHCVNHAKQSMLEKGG
UniProt Q9P2E5: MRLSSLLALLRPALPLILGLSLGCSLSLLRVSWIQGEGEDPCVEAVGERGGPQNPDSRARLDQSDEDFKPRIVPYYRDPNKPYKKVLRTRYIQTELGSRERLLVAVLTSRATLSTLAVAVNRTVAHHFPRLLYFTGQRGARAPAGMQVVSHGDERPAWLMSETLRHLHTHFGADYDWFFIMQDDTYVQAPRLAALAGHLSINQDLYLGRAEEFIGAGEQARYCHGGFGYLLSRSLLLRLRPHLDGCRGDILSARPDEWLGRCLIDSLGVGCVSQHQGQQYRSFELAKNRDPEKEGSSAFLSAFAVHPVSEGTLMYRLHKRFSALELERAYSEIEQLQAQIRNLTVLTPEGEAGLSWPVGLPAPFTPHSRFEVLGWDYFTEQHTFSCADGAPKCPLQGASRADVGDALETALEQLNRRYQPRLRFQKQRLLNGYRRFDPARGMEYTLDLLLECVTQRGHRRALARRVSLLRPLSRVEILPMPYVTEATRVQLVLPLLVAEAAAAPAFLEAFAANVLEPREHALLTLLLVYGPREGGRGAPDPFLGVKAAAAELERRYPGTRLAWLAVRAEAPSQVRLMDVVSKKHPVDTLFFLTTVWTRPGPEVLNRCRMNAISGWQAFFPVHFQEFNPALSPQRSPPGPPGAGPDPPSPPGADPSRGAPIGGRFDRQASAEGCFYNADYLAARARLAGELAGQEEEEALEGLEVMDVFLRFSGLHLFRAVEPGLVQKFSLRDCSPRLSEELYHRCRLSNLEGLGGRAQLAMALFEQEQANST
UniProt Q9P2B4: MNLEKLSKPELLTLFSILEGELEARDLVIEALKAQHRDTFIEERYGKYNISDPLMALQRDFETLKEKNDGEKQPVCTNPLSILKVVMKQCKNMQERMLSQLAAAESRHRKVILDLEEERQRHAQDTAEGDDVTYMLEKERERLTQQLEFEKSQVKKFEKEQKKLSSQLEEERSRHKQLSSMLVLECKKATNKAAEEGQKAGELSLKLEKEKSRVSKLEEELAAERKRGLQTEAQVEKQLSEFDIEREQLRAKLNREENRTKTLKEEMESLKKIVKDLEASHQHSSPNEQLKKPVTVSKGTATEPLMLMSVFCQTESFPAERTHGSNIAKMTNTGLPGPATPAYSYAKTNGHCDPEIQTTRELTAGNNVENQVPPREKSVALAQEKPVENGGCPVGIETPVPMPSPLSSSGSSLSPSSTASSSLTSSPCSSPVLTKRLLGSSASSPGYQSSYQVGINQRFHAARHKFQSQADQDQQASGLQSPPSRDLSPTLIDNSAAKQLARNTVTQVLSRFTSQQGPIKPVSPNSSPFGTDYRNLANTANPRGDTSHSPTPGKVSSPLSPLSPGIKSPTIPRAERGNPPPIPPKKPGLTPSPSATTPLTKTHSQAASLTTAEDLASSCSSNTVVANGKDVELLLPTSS
UniProt Q9UBP0: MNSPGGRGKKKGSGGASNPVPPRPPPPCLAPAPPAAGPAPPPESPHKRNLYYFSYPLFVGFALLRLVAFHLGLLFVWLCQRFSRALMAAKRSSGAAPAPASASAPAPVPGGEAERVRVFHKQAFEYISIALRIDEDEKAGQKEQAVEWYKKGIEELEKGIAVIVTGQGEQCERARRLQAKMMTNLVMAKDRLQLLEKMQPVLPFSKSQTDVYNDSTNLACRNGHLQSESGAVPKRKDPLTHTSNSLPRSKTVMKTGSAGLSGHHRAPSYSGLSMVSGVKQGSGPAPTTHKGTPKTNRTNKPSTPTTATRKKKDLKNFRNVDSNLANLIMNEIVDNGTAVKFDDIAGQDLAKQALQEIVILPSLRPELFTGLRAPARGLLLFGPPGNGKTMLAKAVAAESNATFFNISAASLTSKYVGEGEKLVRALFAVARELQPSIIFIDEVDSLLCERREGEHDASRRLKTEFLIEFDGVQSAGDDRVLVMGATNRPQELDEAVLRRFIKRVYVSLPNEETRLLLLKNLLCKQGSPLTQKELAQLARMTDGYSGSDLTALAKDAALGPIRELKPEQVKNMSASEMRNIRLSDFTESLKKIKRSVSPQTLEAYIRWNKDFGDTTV
UniProt Q9P2G1: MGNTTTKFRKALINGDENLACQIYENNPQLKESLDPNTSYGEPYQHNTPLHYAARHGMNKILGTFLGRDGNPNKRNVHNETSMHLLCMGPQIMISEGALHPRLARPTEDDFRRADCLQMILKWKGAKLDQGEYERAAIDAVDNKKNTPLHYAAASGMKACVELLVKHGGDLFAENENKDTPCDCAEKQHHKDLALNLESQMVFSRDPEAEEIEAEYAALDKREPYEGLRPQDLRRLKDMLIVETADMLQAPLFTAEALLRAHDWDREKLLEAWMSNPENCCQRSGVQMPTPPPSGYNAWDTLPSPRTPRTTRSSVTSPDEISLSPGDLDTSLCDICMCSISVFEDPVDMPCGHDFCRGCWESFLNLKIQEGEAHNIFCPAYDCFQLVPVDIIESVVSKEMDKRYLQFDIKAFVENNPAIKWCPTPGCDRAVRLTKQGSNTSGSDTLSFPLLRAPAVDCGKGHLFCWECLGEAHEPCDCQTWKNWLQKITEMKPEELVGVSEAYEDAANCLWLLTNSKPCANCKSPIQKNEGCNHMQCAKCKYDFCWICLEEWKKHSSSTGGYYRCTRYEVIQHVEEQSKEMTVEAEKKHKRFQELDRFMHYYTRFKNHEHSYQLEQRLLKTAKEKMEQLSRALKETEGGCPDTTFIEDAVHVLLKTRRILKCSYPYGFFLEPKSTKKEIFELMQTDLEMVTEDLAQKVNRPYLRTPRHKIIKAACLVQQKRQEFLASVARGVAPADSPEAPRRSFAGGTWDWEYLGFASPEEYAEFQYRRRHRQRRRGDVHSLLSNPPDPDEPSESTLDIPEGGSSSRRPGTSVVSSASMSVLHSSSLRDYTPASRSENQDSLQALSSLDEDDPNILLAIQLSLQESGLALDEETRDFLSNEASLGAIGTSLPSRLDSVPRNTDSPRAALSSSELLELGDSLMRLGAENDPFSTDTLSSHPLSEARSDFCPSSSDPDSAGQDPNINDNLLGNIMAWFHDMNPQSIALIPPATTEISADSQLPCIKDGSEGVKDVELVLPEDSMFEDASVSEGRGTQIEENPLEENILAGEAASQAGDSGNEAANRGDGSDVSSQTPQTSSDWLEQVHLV
UniProt Q9NXR1: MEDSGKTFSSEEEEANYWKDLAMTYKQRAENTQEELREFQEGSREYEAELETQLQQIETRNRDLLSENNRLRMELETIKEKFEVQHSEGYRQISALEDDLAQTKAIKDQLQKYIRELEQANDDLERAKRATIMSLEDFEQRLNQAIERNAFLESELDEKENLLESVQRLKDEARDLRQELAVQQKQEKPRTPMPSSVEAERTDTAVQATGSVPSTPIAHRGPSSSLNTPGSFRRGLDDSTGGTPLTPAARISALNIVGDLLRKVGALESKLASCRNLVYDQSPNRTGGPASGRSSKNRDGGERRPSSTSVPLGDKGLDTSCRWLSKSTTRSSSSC
UniProt Q9NX61: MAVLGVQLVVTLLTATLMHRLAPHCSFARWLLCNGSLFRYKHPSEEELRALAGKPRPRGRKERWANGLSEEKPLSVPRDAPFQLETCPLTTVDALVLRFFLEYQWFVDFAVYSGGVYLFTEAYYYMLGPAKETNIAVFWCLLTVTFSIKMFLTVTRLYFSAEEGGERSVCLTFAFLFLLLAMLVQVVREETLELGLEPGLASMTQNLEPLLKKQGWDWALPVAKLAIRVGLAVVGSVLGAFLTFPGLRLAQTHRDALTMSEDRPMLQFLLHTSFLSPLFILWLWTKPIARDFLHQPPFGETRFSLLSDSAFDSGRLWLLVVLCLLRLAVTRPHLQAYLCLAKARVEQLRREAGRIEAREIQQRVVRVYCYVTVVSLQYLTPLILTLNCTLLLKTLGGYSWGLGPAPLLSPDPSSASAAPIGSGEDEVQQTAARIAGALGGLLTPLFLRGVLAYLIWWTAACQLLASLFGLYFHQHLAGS
UniProt Q9P0T4: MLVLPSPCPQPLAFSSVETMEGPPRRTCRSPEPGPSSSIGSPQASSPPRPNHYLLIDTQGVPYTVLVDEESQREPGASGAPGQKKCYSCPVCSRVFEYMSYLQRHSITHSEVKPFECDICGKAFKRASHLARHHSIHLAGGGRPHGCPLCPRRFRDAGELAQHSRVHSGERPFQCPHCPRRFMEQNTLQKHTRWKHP
UniProt Q9P0U4, whole entry: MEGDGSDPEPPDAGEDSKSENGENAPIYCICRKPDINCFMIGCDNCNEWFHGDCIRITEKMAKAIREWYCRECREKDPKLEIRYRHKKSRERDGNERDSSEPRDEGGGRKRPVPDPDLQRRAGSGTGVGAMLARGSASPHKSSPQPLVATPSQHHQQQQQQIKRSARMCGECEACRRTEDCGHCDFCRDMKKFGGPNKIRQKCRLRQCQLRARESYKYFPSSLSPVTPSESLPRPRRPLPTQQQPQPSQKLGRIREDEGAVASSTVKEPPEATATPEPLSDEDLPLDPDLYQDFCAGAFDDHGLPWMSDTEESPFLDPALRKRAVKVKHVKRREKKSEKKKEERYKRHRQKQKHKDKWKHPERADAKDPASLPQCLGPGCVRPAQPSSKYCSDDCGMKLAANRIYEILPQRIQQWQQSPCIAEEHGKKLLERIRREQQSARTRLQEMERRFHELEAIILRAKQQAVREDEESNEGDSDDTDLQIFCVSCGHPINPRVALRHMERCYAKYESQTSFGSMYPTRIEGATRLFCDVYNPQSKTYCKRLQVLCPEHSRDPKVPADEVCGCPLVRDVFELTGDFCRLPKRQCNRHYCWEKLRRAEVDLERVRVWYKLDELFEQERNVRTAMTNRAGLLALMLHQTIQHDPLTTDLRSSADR
UniProt Q9NZN4: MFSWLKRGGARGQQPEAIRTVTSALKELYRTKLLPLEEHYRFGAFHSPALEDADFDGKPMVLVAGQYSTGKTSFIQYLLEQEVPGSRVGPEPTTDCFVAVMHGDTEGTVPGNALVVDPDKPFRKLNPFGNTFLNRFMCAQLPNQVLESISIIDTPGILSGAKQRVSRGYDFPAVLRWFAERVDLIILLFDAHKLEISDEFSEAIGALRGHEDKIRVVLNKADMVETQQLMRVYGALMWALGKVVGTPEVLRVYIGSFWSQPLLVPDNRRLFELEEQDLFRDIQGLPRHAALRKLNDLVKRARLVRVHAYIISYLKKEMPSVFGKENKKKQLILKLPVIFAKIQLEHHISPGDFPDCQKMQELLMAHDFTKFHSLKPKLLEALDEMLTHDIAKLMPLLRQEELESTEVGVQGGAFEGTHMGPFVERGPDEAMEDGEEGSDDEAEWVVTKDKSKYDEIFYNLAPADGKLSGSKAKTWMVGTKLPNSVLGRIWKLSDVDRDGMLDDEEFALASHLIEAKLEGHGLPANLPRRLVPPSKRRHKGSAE
UniProt Q9NX01: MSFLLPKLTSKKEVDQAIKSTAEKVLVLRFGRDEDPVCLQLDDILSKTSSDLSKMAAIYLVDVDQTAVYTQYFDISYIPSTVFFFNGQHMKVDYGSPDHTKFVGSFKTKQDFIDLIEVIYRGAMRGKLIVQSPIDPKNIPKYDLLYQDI
UniProt Q9UEG4: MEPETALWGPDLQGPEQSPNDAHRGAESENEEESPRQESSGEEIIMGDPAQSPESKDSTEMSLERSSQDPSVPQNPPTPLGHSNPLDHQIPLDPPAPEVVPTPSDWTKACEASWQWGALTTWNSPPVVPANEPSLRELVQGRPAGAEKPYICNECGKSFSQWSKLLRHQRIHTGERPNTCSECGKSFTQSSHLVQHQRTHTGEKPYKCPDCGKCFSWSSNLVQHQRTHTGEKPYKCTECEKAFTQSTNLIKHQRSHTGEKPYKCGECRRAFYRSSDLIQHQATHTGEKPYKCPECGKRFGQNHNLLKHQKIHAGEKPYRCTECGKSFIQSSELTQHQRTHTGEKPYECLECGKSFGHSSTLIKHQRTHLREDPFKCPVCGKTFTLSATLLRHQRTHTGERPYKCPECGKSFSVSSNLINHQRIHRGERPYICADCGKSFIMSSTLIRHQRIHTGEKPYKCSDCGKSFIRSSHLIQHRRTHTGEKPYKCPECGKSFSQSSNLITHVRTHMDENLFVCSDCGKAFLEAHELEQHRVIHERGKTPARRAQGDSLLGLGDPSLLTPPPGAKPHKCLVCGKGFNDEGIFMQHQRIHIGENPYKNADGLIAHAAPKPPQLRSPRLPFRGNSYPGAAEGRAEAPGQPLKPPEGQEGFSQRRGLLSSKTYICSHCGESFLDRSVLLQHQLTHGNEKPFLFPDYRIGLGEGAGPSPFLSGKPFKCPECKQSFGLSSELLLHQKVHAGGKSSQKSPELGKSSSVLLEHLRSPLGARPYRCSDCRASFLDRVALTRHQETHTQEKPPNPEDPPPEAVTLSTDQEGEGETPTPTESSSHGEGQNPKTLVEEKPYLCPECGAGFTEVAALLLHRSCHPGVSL

Compound: CCc1cnccc1C(=O)Nc1cc2c(cc1F)NC(=O)CC2
Test: melting temperature shift (DMSO Tm minus MBE1-treated Tm) in cellular thermal proteome profiling; higher = less thermal stabilization by MBE1 (negative = stabilized by MBE1)
Details: A375

| Target | melting temperature shift (MBE1 concentration: 100 nM) | melting temperature shift (MBE1 concentration: 1 uM) |
| --- | --- | --- |
| CHCHD3 (UniProt Q9NX63) | -1.07 °C | 0.116 °C |
| GAR1 (UniProt Q9NY12) | -2.74 °C |  |
| UniProt Q9UFF9 | 0.136 °C | 0 °C |
| CHPF2 (UniProt Q9P2E5) | -0.371 °C | 0.256 °C |
| CTTNBP2NL (UniProt Q9P2B4) | 0.33 °C | -0.179 °C |
| SPAST (UniProt Q9UBP0) | -0.47 °C | -0.0988 °C |
| UniProt Q9P2G1 | -0.999 °C | -0.348 °C |
| NDE1 (UniProt Q9NXR1) | -1.97 °C | -0.321 °C |
| TMEM161A (UniProt Q9NX61) | 1.46 °C | 0.232 °C |
| LARS (UniProt Q9P2J5) | -0.706 °C | -0.409 °C |
| ADD3 (UniProt Q9UEY8) | -3.58 °C | 0.389 °C |
| PAG1 (UniProt Q9NWQ8) |  | -2.96 °C |
| UniProt Q9P0T4 | -1.11 °C | 1.12 °C |
| GMPR2 (UniProt Q9P2T1) |  | -3.15 °C |
| CXXC1 (UniProt Q9P0U4) | -0.333 °C |  |
| UniProt Q9NYG2 | 0.299 °C |  |
| UniProt Q9UBF8 | -0.738 °C | 0.167 °C |
| EHD2 (UniProt Q9NZN4) | -0.189 °C | 0.0672 °C |
| CTNNAL1 (UniProt Q9UBT7) | -0.79 °C | -0.837 °C |
| UniProt Q9NX01 | 0.782 °C |  |
| UniProt Q9NX04 | 1.34 °C |  |
| MRPS18A (UniProt Q9NVS2) | 0.0672 °C | 1.27 °C |
| RCC2 (UniProt Q9P258) | -0.448 °C | 0.348 °C |
| UniProt Q9P212 | 5.94 °C |  |
| UniProt Q9NWT8 |  | -2.34 °C |
| ZNF629 (UniProt Q9UEG4) | -4.55 °C | -5.72 °C |
| UniProt Q9NZC7 | -0.849 °C | 0.235 °C |
| TMEM38B (UniProt Q9NVV0) |  | -1.89 °C |

Some of the entries above in a different format.
Target	melting temperature shift (MBE1 concentration: 100 nM)	melting temperature shift (MBE1 concentration: 1 uM)
CTTNBP2NL (UniProt Q9P2B4)	0.33 °C	-0.179 °C
SPAST (UniProt Q9UBP0)	-0.47 °C	-0.0988 °C
